{"source": "the supplement of paper PMC8728848", "binders": {"B1": {"name": "SHCBP1-GST (Homo sapiens), Q8NEM2 (protein)", "chain": "MADGSLTGGGLEAAAMAPERMGWAVEQELASLEKGLFQDEDSCSDCSYRDKPGSSLQSFMPEGKTFFPEIFQTNQLLFYERFRAYQDYILADCKASEVQEFTAEFLEKVLEPSGWRAVWHTNVFKVLVEITDVDFAALKAVVRLAEPYLCDSQVSTFTMECMKELLDLKEHRLPLQELWVVFDDSGVFDQTALAIEHVRFFYQNIWRSWDEEEEDEYDYFVRCVEPRLRLHYDILEDRVPSGLIVDYHNLLSQCEESYRKFLNLRSSLSNCNSDSEQENISMVEGLKLYSEMEQLKQKLKLIENPLLRYVFGYQKNSNIQAKGVRSSGQKITHVVSSTMMAGLLRSLLTDRLCQEPGEEEREIQFHSDPLSAINACFEGDTVIVCPGHYVVHGTFSIADSIELEGYGLPDDIVIEKRGKGDTFVDCTGADIKISGIKFVQHDAVEGILIVHRGKTTLENCVLQCETTGVTVRTSAEFLMKNSDLYGAKGAGIEIYPGSQCTLSDNGIHHCKEGILIKDFLDEHYDIPKISMVNNIIHNNEGYGVVLVKPTIFSDLQENAEDGTEENKALKIQTSGEPDVAERVDLEELIECATGKMELCARTDPSEQVEGNCEIVNELIAASTQKGQIKKKRLSELGITQADDNLMSQEMFVGIVGNQFKWNGKGSFGTFLF"}}, "test_in_all_cases": "glycan array binding signal (z-score within array); higher = stronger binding", "settings_in_all_cases": "glycan notation: IUPAC condensed, linker removed", "key": {"[1]": {"biological_target": "Gal(b1-4)GalNAc(b1-3)[Fuc(a1-2)]Gal(b1-4)GlcNAc", "in_short": "(§1)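 The binding signal is a Z-score computed within each array and averaged over linkers. Arrays of the same protein sequence at different concentrations or buffers were also averaged together. Data originate from 3228 arrays in the Consortium for Functional Glycomics database, kept only where the protein sequence was available.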"}, "Gal(b1-4)Glc": {"biological_target": "Gal(b1-4)Glc", "in_short": "as §1"}, "Gal(b1-4)Glc6S": {"biological_target": "Gal(b1-4)Glc6S", "in_short": "as §1"}, "Gal(b1-4)GlcNAc": {"biological_target": "Gal(b1-4)GlcNAc", "in_short": "as §1"}, "[2]": {"biological_target": "Gal(b1-4)GlcNAc(a1-6)Gal(b1-4)GlcNAc", "in_short": "as §1"}, "Gal(b1-4)GlcNAc(b1-2)Man": {"biological_target": "Gal(b1-4)GlcNAc(b1-2)Man", "in_short": "as §1"}, "[3]": {"biological_target": "Gal(b1-4)GlcNAc(b1-2)Man(a1-3)Man(b1-4)GlcNAc(b1-4)GlcNAc", "in_short": "as §1"}, "[4]": {"biological_target": "Gal(b1-4)GlcNAc(b1-2)Man(a1-3)[Gal(b1-4)GlcNAc(b1-2)Man(a1-6)]Man(b1-4)GlcNAc(b1-4)GlcNAc", "in_short": "as §1"}, "[5]": {"biological_target": "Gal(b1-4)GlcNAc(b1-2)Man(a1-3)[Gal(b1-4)GlcNAc(b1-2)Man(a1-6)]Man(b1-4)GlcNAc(b1-4)[Fuc(a1-6)]GlcNAc", "in_short": "as §1"}, "[6]": {"biological_target": "Gal(b1-4)GlcNAc(b1-2)Man(a1-3)[Gal(b1-4)GlcNAc(b1-2)Man(a1-6)][Gal(b1-4)GlcNAc(b1-4)]Man(b1-4)GlcNAc(b1-4)[Fuc(a1-6)]GlcNAc", "in_short": "as §1"}, "[7]": {"biological_target": "Gal(b1-4)GlcNAc(b1-2)Man(a1-3)[Gal(b1-4)GlcNAc(b1-2)Man(a1-6)][GlcNAc(b1-4)]Man(b1-4)GlcNAc(b1-4)[Fuc(a1-6)]GlcNAc", "in_short": "as §1"}, "[8]": {"biological_target": "Gal(b1-4)GlcNAc(b1-2)Man(a1-3)[GlcNAc(b1-2)Man(a1-6)]Man(b1-4)GlcNAc(b1-4)GlcNAc", "in_short": "as §1"}, "[9]": {"biological_target": "Gal(b1-4)GlcNAc(b1-2)Man(a1-3)[GlcNAc(b1-4)][Gal(b1-4)GlcNAc(b1-2)Man(a1-6)]Man(b1-4)GlcNAc(b1-4)GlcNAc", "in_short": "as §1"}, "[10]": {"biological_target": "Gal(b1-4)GlcNAc(b1-2)Man(a1-3)[Man(a1-6)]Man(b1-4)GlcNAc(b1-4)GlcNAc", "in_short": "as §1"}, "[11]": {"biological_target": "Gal(b1-4)GlcNAc(b1-2)Man(a1-6)Man(b1-4)GlcNAc(b1-4)GlcNAc", "in_short": "as §1"}, "[12]": {"biological_target": "Gal(b1-4)GlcNAc(b1-2)Man(a1-6)[GlcNAc(b1-2)Man(a1-3)]Man(b1-4)GlcNAc(b1-4)GlcNAc", "in_short": "as §1"}, "[13]": {"biological_target": "Gal(b1-4)GlcNAc(b1-2)Man(a1-6)[Man(a1-3)]Man(b1-4)GlcNAc(b1-4)GlcNAc", "in_short": "as §1"}, "[14]": {"biological_target": "Gal(b1-4)GlcNAc(b1-2)[Gal(b1-4)GlcNAc(b1-4)]Man(a1-3)[Gal(b1-4)GlcNAc(b1-2)Man(a1-6)]Man(b1-4)GlcNAc(b1-4)GlcNAc", "in_short": "as §1"}, "[15]": {"biological_target": "Gal(b1-4)GlcNAc(b1-2)[Gal(b1-4)GlcNAc(b1-4)]Man(a1-3)[Gal(b1-4)GlcNAc(b1-2)[Gal(b1-4)GlcNAc(b1-6)]Man(a1-6)]Man(b1-4)GlcNAc(b1-4)GlcNAc", "in_short": "as §1"}, "[16]": {"biological_target": "Gal(b1-4)GlcNAc(b1-2)[Gal(b1-4)GlcNAc(b1-4)]Man(a1-3)[GlcNAc(b1-4)][Gal(b1-4)GlcNAc(b1-2)Man(a1-6)]Man(b1-4)GlcNAc(b1-4)GlcNAc", "in_short": "as §1"}, "[17]": {"biological_target": "Gal(b1-4)GlcNAc(b1-2)[Gal(b1-4)GlcNAc(b1-4)]Man(a1-3)[GlcNAc(b1-4)][Gal(b1-4)GlcNAc(b1-2)[Gal(b1-4)GlcNAc(b1-6)]Man(a1-6)]Man(b1-4)GlcNAc(b1-4)GlcNAc", "in_short": "as §1"}, "[18]": {"biological_target": "Gal(b1-4)GlcNAc(b1-2)[Gal(b1-4)GlcNAc(b1-6)]Man(a1-6)[Gal(b1-4)GlcNAc(b1-2)Man(a1-3)]Man(b1-4)GlcNAc(b1-4)GlcNAc", "in_short": "as §1"}, "[19]": {"biological_target": "Gal(b1-4)GlcNAc(b1-2)[Gal(b1-4)GlcNAc(b1-6)]Man(a1-6)[Gal(b1-4)GlcNAc(b1-2)Man(a1-3)]Man(b1-4)GlcNAc(b1-4)[Fuc(a1-6)]GlcNAc", "in_short": "as §1"}, "[20]": {"biological_target": "Gal(b1-4)GlcNAc(b1-2)[Gal(b1-4)GlcNAc(b1-6)]Man(a1-6)[GlcNAc(b1-4)][Gal(b1-4)GlcNAc(b1-2)Man(a1-3)]Man(b1-4)GlcNAc(b1-4)GlcNAc", "in_short": "as §1"}, "[21]": {"biological_target": "Gal(b1-4)GlcNAc(b1-2)[Gal(b1-4)GlcNAc(b1-6)]Man(a1-6)[GlcNAc(b1-4)][Gal(b1-4)GlcNAc(b1-2)[Gal(b1-4)GlcNAc(b1-4)]Man(a1-3)]Man(b1-4)GlcNAc(b1-4)[Fuc(a1-6)]GlcNAc", "in_short": "as §1"}, "[22]": {"biological_target": "Gal(b1-4)GlcNAc(b1-3)Gal(b1-3)GalNAc", "in_short": "as §1"}, "[23]": {"biological_target": "Gal(b1-4)GlcNAc(b1-3)Gal(b1-3)GlcNAc", "in_short": "as §1"}, "[24]": {"biological_target": "Gal(b1-4)GlcNAc(b1-3)Gal(b1-4)Glc", "in_short": "as §1"}, "[25]": {"biological_target": "Gal(b1-4)GlcNAc(b1-3)Gal(b1-4)GlcNAc", "in_short": "as §1"}, "[26]": {"biological_target": "Gal(b1-4)GlcNAc(b1-3)Gal(b1-4)GlcNAc(b1-2)Man(a1-3)[Gal(b1-4)GlcNAc(b1-3)Gal(b1-4)GlcNAc(b1-2)Man(a1-6)]Man(b1-4)GlcNAc(b1-4)GlcNAc", "in_short": "as §1"}}, "note": "This is one part of the list.", "data": [{"binder": "B1", "values": [{"measurement": "glycan array binding signal (z-score)", "setting": "[1]", "value": -0.953}, {"measurement": "glycan array binding signal (z-score)", "setting": "Gal(b1-4)Glc", "value": 0.02}, {"measurement": "glycan array binding signal (z-score)", "setting": "Gal(b1-4)Glc6S", "value": -0.107}, {"measurement": "glycan array binding signal (z-score)", "setting": "Gal(b1-4)GlcNAc", "value": -0.166}, {"measurement": "glycan array binding signal (z-score)", "setting": "[2]", "value": -0.736}, {"measurement": "glycan array binding signal (z-score)", "setting": "Gal(b1-4)GlcNAc(b1-2)Man", "value": 0.293}, {"measurement": "glycan array binding signal (z-score)", "setting": "[3]", "value": -0.705}, {"measurement": "glycan array binding signal (z-score)", "setting": "[4]", "value": 1.64}, {"measurement": "glycan array binding signal (z-score)", "setting": "[5]", "value": 0.409}, {"measurement": "glycan array binding signal (z-score)", "setting": "[6]", "value": -0.811}, {"measurement": "glycan array binding signal (z-score)", "setting": "[7]", "value": -1.17}, {"measurement": "glycan array binding signal (z-score)", "setting": "[8]", "value": 0.361}, {"measurement": "glycan array binding signal (z-score)", "setting": "[9]", "value": -0.882}, {"measurement": "glycan array binding signal (z-score)", "setting": "[10]", "value": 0.6}, {"measurement": "glycan array binding signal (z-score)", "setting": "[11]", "value": -0.665}, {"measurement": "glycan array binding signal (z-score)", "setting": "[12]", "value": -0.694}, {"measurement": "glycan array binding signal (z-score)", "setting": "[13]", "value": -0.509}, {"measurement": "glycan array binding signal (z-score)", "setting": "[14]", "value": -0.348}, {"measurement": "glycan array binding signal (z-score)", "setting": "[15]", "value": -0.974}, {"measurement": "glycan array binding signal (z-score)", "setting": "[16]", "value": 0.176}, {"measurement": "glycan array binding signal (z-score)", "setting": "[17]", "value": -0.369}, {"measurement": "glycan array binding signal (z-score)", "setting": "[18]", "value": 0.147}, {"measurement": "glycan array binding signal (z-score)", "setting": "[19]", "value": 5.01}, {"measurement": "glycan array binding signal (z-score)", "setting": "[20]", "value": -0.751}, {"measurement": "glycan array binding signal (z-score)", "setting": "[21]", "value": -0.032}, {"measurement": "glycan array binding signal (z-score)", "setting": "[22]", "value": -0.645}, {"measurement": "glycan array binding signal (z-score)", "setting": "[23]", "value": -0.681}, {"measurement": "glycan array binding signal (z-score)", "setting": "[24]", "value": 0.172}, {"measurement": "glycan array binding signal (z-score)", "setting": "[25]", "value": 0.516}, {"measurement": "glycan array binding signal (z-score)", "setting": "[26]", "value": 1.68}]}]}
